Laboratory results as given in PMC9797307, “Measurement of Pharmacokinetics and Tissue Distribution of Four Compounds from Nauclea officinalis in Rat Plasma and Tissues through HPLC-MS/MS” (Journal of Analytical Methods in Chemistry, 2022).

Assay: Extraction recovery of analytes from rat plasma and tissue samples
Settings: n = 6

**Q.** With `O=C(/C=C/c1ccc(O)c(O)c1)O[C@@H]1C[C@](O)(C(=O)O)C[C@@H](O)[C@H]1O` [Chlorogenic acid] as the compound, how does the Extraction recovery (brain, 2 ng/mL) read?
**A.** 82.33 ± 4.65%

**Q.** What about the Extraction recovery (brain, 4 ng/mL) of the same compound?
**A.** 75.80 ± 3.59%

**Q.** And the Extraction recovery (brain, 100 ng/mL)?
**A.** 71.37 ± 1.17%

**Q.** What about the Extraction recovery (brain, 2400 ng/mL) of the same compound?
**A.** 86.06 ± 1.68%

**Q.** And the Extraction recovery (heart, 2 ng/mL)?
**A.** 80.53 ± 9.62%

**Q.** And the Extraction recovery (heart, 4 ng/mL)?
**A.** 76.82 ± 4.77%

**Q.** What about the Extraction recovery (heart, 100 ng/mL) of the same compound?
**A.** 62.02 ± 2.24%

**Q.** What about the Extraction recovery (heart, 2400 ng/mL) of the same compound?
**A.** 63.32 ± 0.58%

**Q.** And the Extraction recovery (kidney, 2 ng/mL)?
**A.** 78.34 ± 4.02%

**Q.** And the Extraction recovery (kidney, 4 ng/mL)?
**A.** 86.92 ± 3.00%

**Q.** What about the Extraction recovery (kidney, 100 ng/mL) of the same compound?
**A.** 70.73 ± 4.90%

**Q.** And the Extraction recovery (kidney, 2400 ng/mL)?
**A.** 72.70 ± 1.50%

**Q.** And the Extraction recovery (liver, 2 ng/mL)?
**A.** 97.06 ± 3.75%

**Q.** What about the Extraction recovery (liver, 4 ng/mL) of the same compound?
**A.** 79.07 ± 2.90%

**Q.** And the Extraction recovery (liver, 100 ng/mL)?
**A.** 66.44 ± 0.24%

**Q.** What about the Extraction recovery (liver, 2400 ng/mL) of the same compound?
**A.** 69.83 ± 1.55%

**Q.** And the Extraction recovery (lung, 2 ng/mL)?
**A.** 81.80 ± 2.52%

**Q.** What about the Extraction recovery (lung, 4 ng/mL) of the same compound?
**A.** 88.65 ± 1.55%

**Q.** What about the Extraction recovery (lung, 100 ng/mL) of the same compound?
**A.** 80.24 ± 2.11%

**Q.** And the Extraction recovery (lung, 2400 ng/mL)?
**A.** 76.89 ± 1.69%

**Q.** And the Extraction recovery (plasma, 2 ng/mL)?
**A.** 80.45 ± 4.36%

**Q.** What about the Extraction recovery (plasma, 4 ng/mL) of the same compound?
**A.** 80.04 ± 3.08%

**Q.** And the Extraction recovery (plasma, 100 ng/mL)?
**A.** 69.49 ± 4.05%

**Q.** What about the Extraction recovery (plasma, 2400 ng/mL) of the same compound?
**A.** 72.26 ± 1.16%

**Q.** What about the Extraction recovery (small intestine, 2 ng/mL) of the same compound?
**A.** 56.20 ± 3.36%

**Q.** What about the Extraction recovery (small intestine, 4 ng/mL) of the same compound?
**A.** 51.85 ± 1.94%

**Q.** And the Extraction recovery (small intestine, 100 ng/mL)?
**A.** 61.26 ± 1.87%

**Q.** And the Extraction recovery (small intestine, 2400 ng/mL)?
**A.** 62.66 ± 1.06%

**Q.** And the Extraction recovery (spleen, 2 ng/mL)?
**A.** 80.09 ± 1.22%

**Q.** What about the Extraction recovery (spleen, 4 ng/mL) of the same compound?
**A.** 86.82 ± 2.88%

**Q.** And the Extraction recovery (spleen, 100 ng/mL)?
**A.** 67.29 ± 1.81%

**Q.** And the Extraction recovery (spleen, 2400 ng/mL)?
**A.** 73.12 ± 1.61%

**Q.** What about the Extraction recovery (stomach, 2 ng/mL) of the same compound?
**A.** 85.33 ± 5.20%

**Q.** And the Extraction recovery (stomach, 4 ng/mL)?
**A.** 91.66 ± 6.11%

**Q.** What about the Extraction recovery (stomach, 100 ng/mL) of the same compound?
**A.** 66.48 ± 3.94%

**Q.** And the Extraction recovery (stomach, 2400 ng/mL)?
**A.** 69.41 ± 1.56%

**Q.** Which results are given for `C/C=C1/COC(=O)[C@H]2C(=O)N3CCc4c([nH]c5ccccc45)[C@@H]3C[C@@H]12` [Naucleactonin C]?
**A.** Extraction recovery (brain, 5 ng/mL): 88.08 ± 3.12%; Extraction recovery (brain, 8 ng/mL): 88.38 ± 7.32%; Extraction recovery (brain, 140 ng/mL): 97.63 ± 4.35%; Extraction recovery (brain, 2400 ng/mL): 99.47 ± 1.42%; Extraction recovery (heart, 5 ng/mL): 97.71 ± 1.95%; Extraction recovery (heart, 8 ng/mL): 96.33 ± 7.19%; Extraction recovery (heart, 140 ng/mL): 85.37 ± 2.90%; Extraction recovery (heart, 2400 ng/mL): 86.76 ± 1.61%; Extraction recovery (kidney, 5 ng/mL): 94.08 ± 8.11%; Extraction recovery (kidney, 8 ng/mL): 105.08 ± 5.22%; Extraction recovery (kidney, 140 ng/mL): 86.02 ± 4.39%; Extraction recovery (kidney, 2400 ng/mL): 86.64 ± 2.26%; Extraction recovery (liver, 5 ng/mL): 92.06 ± 9.87%; Extraction recovery (liver, 8 ng/mL): 85.03 ± 4.91%; Extraction recovery (liver, 140 ng/mL): 84.88 ± 4.52%; Extraction recovery (liver, 2400 ng/mL): 80.54 ± 0.83%; Extraction recovery (lung, 5 ng/mL): 105.63 ± 3.87%; Extraction recovery (lung, 8 ng/mL): 99.21 ± 12.43%; Extraction recovery (lung, 140 ng/mL): 95.48 ± 2.88%; Extraction recovery (lung, 2400 ng/mL): 84.40 ± 1.82%; Extraction recovery (plasma, 5 ng/mL): 100.30 ± 11.77%; Extraction recovery (plasma, 8 ng/mL): 106.68 ± 6.31%; Extraction recovery (plasma, 140 ng/mL): 96.41 ± 1.66%; Extraction recovery (plasma, 2400 ng/mL): 88.27 ± 1.05%; Extraction recovery (small intestine, 5 ng/mL): 98.55 ± 9.61%; Extraction recovery (small intestine, 8 ng/mL): 82.00 ± 5.03%; Extraction recovery (small intestine, 140 ng/mL): 91.73 ± 1.67%; Extraction recovery (small intestine, 2400 ng/mL): 86.61 ± 3.15%; Extraction recovery (spleen, 5 ng/mL): 100.21 ± 9.21%; Extraction recovery (spleen, 8 ng/mL): 99.90 ± 5.49%; Extraction recovery (spleen, 140 ng/mL): 84.00 ± 1.54%; Extraction recovery (spleen, 2400 ng/mL): 84.60 ± 1.40%; Extraction recovery (stomach, 5 ng/mL): 97.93 ± 4.19%; Extraction recovery (stomach, 8 ng/mL): 99.25 ± 3.17%; Extraction recovery (stomach, 140 ng/mL): 82.46 ± 1.88%; Extraction recovery (stomach, 2400 ng/mL): 75.99 ± 2.77%
